Measurements from the supplement of paper PMC5662767.
Structures can show the parent of a compound that is named as a salt. The list shows a part of the results. Part of the spread comes from offsets between plates or batches.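 A clonal Drosophila S2 line expresses Smoothened bearing circularly permuted GFP in its cytoplasmic tail; Hh-driven phosphorylation opens an inhibitory loop, making it fluoresce. Flow cytometry measured per-cell fluorescence, normalized to Hh-stimulated untreated cells. Hits were inhibitor groups with shared pathway targets that consistently shifted fluorescence, not individual compounds.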

test system: Drosophila S2 cl14 SmoIP sensor cells; assay: normalized SmoIP GFP fluorescence (untreated unstimulated = 0%, untreated Hh-stimulated = 100%); higher = more Smo activation sensor fluorescence; conditions: stimulation: mock conditioned medium (-Hh); compound concentration: 15 uM; 24 h

| SMILES | normalized SmoIP GFP fluorescence [%] |
| --- | --- |
| CC(C)[C@H](O)C(=O)N[C@@H](C)C(=O)N[C@@H]1C(=O)N(C)CCc2ccccc21 | 11.3 |
| Cc1cccc(-c2[nH]c(C(C)(C)C)nc2-c2ccc3c(c2)OCO3)n1 | -4.08 |
| CCCCCCCCCCCC1=C(O)C(=O)C=C(O)C1=O [embelin] | 13.5 |
| COC(=O)C1=C(C)NC(C)=C(C(=O)OC2CCCN(Cc3ccccc3)C2)C1c1cccc([N+](=O)[O-])c1 (stereo unspecified) [benidipine-hydrochloride] | 45.7 |
| O=C(Nc1cccc2cccnc12)c1ccc(N2C(=O)[C@@H]3[C@H](C2=O)[C@@H]2C=C[C@H]3C2)cc1 [iwr-1-endo] | 5.47 |
| COc1ccc(S(=O)(=O)N(C(C)=O)c2ccccc2/C=C/c2cc[n+]([O-])cc2)cc1 | 42.6 |
| C[C@H]1[C@H](C)CC[C@]2(C(=O)O)CC[C@]3(C)C(=CC[C@@H]4[C@@]5(C)C[C@@H](O)[C@H](O)[C@@](C)(CO)[C@@H]5CC[C@]43C)[C@H]12 [Asiatic-acid] | -2.19 |
| COC(=O)[C@H](c1ccccc1Cl)N1CCc2sccc2C1 [Clopidogrel-bisulfate] | 25.9 |
| CC#CCn1c(N2CCC[C@@H](N)C2)nc2c1c(=O)n(Cc1nc(C)c3ccccc3n1)c(=O)n2C [linagliptin-bi-1356] | 16.7 |
| CC(C)C[C@H](NC(=O)[C@@H](NC(=O)c1cccc(-c2ccccc2)n1)[C@@H](C)O)B(O)O | 75.1 |
| CCC(=O)N1CCN(c2ccc(-n3c(=O)ccc4cnc5ccc(-c6cnc7ccccc7c6)cc5c43)cc2C(F)(F)F)CC1 [torin-1] | -5.04 |
